Patent publication US20100261682A1, “Method and Means for the Treatment of Cachexia” (Bioneris AB, priority 2007, published 2010)

Test system: MAC16 tumour-bearing mice
Experiment: Body weight, food and water intake in MAC16 tumour-bearing mice treated with lipid soluble alpha-trinositol (Example 5)
Assay type: in vivo, NMRI mice
Details: 6 mg/kg and 8 mg/kg
Source text: Materials. Lipid soluble alpha trinositol (1-D-tri-O-hexanoyl-myo-inositol 1,2,6-triphosphate) was formed by further esterification of 1-D-Myo-inositol 1,2,6-triphosphate.
Animals. Pure strain male NMRI mice (average body weight 25 g) were transplanted with fragments of the MAC16 tumour subcutaneously into the flank by means of a trochar, selected from donor animals with established weight loss (Bibby M C et al., Characterization of transplantable adenocarcinoma in the mouse colon producing cachexia in the recipient animals. J Natl Cancer Inst 78 (1987) 539-546). Transplanted animals were given a rat and mouse breeding diet (Special Diet Services, Witham, UK) and water at lib. Weight loss was evident 10 to 12 days after tumour implantation. Just prior to the development of weight loss […] were randomized into three groups of six animals each.
Administration of alpha-trinositol. A first experiment was started when the animals had lost about 5% of body weight. Aliquots of lipid soluble alpha-trinositol stock solution corresponding to doses of 6 mg/kg body weight and 8 mg/kg body weight for a 25 g animal were administered subcutaneously three times per day at 8.00, 12.00 and 16.00 hrs. […] Body weight (FIG. 26), tumour volume, and food (FIG. 27) and water (FIG. 28) intake were determined daily (for 5 days) after the last injection. […]

With `CCCCCC(=O)O[C@@H]1[C@@H](OC(=O)CCCCC)[C@@H](OP(=O)(O)O)[C@@H](OP(=O)(O)O)[C@H](OP(=O)(O)O)[C@H]1OC(=O)CCCCC` [lipid soluble alpha trinositol, 1-D-tri-O-hexanoyl-myo-inositol 1,2,6-triphosphate] the food intake (FIG. 27) was “not affected” and the water intake (FIG. 28) was “not affected”.
